No constants are given. Whether binding was seen depends on the method and setting. Some entries that bind do so weakly or less than the wild type.
Target: Affinity purified soluble human sortilin (human) (UniProt Q99523)
Experiment: SPR; BIAcore CM5 chip; sortilin immobilized (72 to 75 fmol/mm^2); M6PR (41-1365aa) injected to saturation, or flow buffer, prior to injection of α-Gal A; both purified

By UniProt entry, the sequences of proteins in these tests, tags left out. Residues count along the entry.
UniProt Q99523, residues 78-755: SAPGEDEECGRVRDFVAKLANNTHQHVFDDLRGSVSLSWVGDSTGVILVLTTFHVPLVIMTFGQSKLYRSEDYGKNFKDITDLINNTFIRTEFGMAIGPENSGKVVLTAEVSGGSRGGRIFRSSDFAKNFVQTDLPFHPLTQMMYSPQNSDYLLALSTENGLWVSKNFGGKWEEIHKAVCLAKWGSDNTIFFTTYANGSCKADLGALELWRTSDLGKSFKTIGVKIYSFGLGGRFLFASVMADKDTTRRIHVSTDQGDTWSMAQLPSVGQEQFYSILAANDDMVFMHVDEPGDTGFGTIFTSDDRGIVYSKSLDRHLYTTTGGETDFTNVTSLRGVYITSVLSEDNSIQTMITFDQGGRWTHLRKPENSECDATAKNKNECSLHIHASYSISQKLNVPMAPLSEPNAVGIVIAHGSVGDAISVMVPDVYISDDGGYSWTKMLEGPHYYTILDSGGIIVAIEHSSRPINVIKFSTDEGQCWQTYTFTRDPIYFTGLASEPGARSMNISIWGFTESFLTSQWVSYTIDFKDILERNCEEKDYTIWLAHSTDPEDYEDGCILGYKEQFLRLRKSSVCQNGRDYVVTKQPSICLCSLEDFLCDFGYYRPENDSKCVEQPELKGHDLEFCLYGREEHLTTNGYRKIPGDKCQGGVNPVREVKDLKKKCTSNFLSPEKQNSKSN
UniProt P11717, residues 41-1365: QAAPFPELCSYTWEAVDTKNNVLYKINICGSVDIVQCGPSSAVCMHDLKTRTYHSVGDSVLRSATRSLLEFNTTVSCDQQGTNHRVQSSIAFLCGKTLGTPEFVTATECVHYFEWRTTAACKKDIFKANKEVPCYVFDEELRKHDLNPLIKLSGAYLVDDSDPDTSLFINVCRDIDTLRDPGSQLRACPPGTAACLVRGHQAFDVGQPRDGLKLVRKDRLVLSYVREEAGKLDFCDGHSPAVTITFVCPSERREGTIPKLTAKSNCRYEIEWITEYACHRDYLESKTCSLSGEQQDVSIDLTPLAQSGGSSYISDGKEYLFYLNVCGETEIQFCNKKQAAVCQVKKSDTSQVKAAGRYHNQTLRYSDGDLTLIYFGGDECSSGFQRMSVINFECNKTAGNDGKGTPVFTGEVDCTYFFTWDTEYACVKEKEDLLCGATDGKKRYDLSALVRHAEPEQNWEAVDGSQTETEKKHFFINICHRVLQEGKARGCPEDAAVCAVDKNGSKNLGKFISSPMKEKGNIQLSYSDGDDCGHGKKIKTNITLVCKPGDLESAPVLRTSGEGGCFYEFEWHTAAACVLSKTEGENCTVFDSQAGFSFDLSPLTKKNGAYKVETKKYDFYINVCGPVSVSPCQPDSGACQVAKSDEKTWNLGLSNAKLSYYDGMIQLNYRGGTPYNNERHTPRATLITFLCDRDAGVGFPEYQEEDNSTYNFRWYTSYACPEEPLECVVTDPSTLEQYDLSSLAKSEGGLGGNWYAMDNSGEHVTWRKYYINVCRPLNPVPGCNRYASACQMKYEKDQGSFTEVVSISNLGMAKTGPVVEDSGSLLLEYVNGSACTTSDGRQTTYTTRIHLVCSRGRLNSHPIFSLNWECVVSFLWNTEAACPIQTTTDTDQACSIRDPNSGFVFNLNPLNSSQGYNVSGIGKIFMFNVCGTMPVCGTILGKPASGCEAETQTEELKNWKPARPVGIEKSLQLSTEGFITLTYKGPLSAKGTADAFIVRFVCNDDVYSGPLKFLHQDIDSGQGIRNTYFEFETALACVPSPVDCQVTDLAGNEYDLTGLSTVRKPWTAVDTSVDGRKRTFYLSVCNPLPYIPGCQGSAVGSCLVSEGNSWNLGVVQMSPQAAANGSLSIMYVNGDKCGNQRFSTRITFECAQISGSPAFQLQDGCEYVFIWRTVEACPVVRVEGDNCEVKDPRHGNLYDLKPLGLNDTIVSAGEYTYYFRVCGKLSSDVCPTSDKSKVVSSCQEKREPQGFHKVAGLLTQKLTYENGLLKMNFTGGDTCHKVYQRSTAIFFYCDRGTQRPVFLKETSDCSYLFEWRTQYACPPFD

binding: binds
Substance: Recombinant human M6PR (6418-GR) containing the residues Gln41-Asp1365 (from UniProt P11717 41-1365) (domain or fragment)

— paper PMC3386966
